In PubChem BioAssay AID493014 (National Center for Advancing Translational Sciences (NCATS), 2011):
This is one part of the list. Further columns of the screen follow, without active or inactive calls. Most of these compounds were active or inconclusive in the main read-out, so they are no random draw. The note in brackets gives the kind of curve behind each potency; many fits are weak.

Test: qHTS Assay to Find Inhibitors of Chronic Active B-Cell Receptor Signaling
Settings: ABC-DLBCL IkBa-CBG/CBR reporter, luminescence ratio (green luciferase fused to IkBa over red control in TMD8 lymphoma cells), 4 h
Method in brief: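 Doxycycline induced both beetle luciferases in TMD8 lymphoma cells; IKK-driven degradation limits the IkappaBalpha-fused green signal, while red luminescence normalises for cell number and nonspecific effects. Compounds tested up to 46 uM, 4 hrs.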

[1] = measured here: CBR red luminescence, cell number
[2] = measured here: IkBa-CBG green luminescence

| Compound | AC50 [1] | AC50 [2] |
| --- | --- | --- |
| Cc1ccc(S(=O)(=O)N(CC(=O)N2CCOCC2)c2ccc(Br)cc2)cc1 | 8.91 µM [falling, partial curve, poor fit] | – |
| CCN(CC)CCC(=O)N1c2ccccc2CCc2ccc(NC(=O)OC)cc21 | 11.2 µM [falling, partial curve] | – |
| O=C(Nc1nc(-c2cc(F)ccc2F)cs1)C1=COCCO1 | 0.259 µM [rising, partial curve, poor fit] | – |
| CCC(CC)C(=O)N1CC(=O)Nc2ccc(C)cc2C1c1ccccc1 (stereo unspecified) | 35.5 µM [falling, single point] | 35.5 µM [rising, partial curve, poor fit] |
| COC1=C(OC)C(=O)C(CCCCCCCCCCO)=C(C)C1=O | 14.1 µM [falling, partial curve] | – |
| Cc1sc2nc(CN3CCOCC3)[nH]c(=S)c2c1C | 22.4 µM [rising, partial curve, poor fit] | – |
| CCCn1c(=N)n(CC(=O)c2ccco2)c2ccccc21 | – | 25.1 µM [rising, partial curve, poor fit] |
| COC(=O)CC1=C(C(=O)OC)C(c2cccs2)C(C#N)=C(N)O1 (stereo unspecified) | 8.91 µM [falling, partial curve] | – |
| Cc1cc(Nc2cccc([N+](=O)[O-])c2)c2cccc(C)c2n1 | 31.6 µM [falling, single point] | – |
| CC(=O)c1c(C)[nH]c(C(=O)CSc2nnc(C3CCCCC3)n2N)c1C | 29.1 µM [falling, single point] | – |
| Cn1cc(S(=O)(=O)NC[C@H]2O[C@@H](n3cnc4c(N)ncnc43)[C@H](O)[C@@H]2O)cn1 | 23.1 µM [rising, single point] | – |
| Cc1ccccc1N1CCN(C2CCCN(C(=O)CN3CCCC3=O)C2)CC1 (stereo unspecified) | 3.55 µM [falling, single point] | – |
| O=C(c1scc2c1CCCC2)N1CCCCC1 | 29.1 µM [rising, single point] | – |
| COc1ccc(C2CC2/C(=N/OC(=O)c2cccs2)c2ccccc2)cc1 (stereo unspecified) | 0.0082 µM [rising, full curve, poor fit] | – |
| N#CC1=C2N=C(N)c3c(sc4c3CCCCC4)N2C2=C(C(=O)CCC2)C1c1ccccc1 (stereo unspecified) | 1.41 µM [falling, full curve] | – |
| O=c1c2cnn(-c3ccccc3)c2ncn1CCc1ccccc1 | 1.64 µM [rising, full curve, poor fit] | – |
| Nc1ccc(C(=O)Nc2ccc(Nc3ccncc3)cc2)cc1 | 8.91 µM [falling, partial curve, poor fit] | – |
| Cc1ccc(-c2nc(N)sc2-c2ccc(C)cc2)cc1 | 22.4 µM [rising, partial curve, poor fit] | – |
| COCC(C)n1c(C)cc(C(=O)COC(=O)CNC(=O)c2ccccc2)c1C (stereo unspecified) | 3.26 µM [rising, full curve, poor fit] | – |
| COc1cccc(NC(=O)c2nnn(CCc3ccccc3)c2N)c1 | 29.1 µM [falling, single point] | – |
| CC(=O)Nc1ccc(NC(=O)c2cc(=O)c3cc(C)cc(C)c3o2)cc1 | 35.5 µM [falling, single point] | – |
| COc1cc(CNCCN(C)C)c(Br)cc1OC1CCCC1 | 6.31 µM [rising, full curve] | – |

| Compound | AC50 [1] | AC50 [2] |
| --- | --- | --- |
| Cc1ccc(-n2ncc3c(N4CCCCC4)ncnc32)cc1Cl | 3.55 µM [falling, partial curve, poor fit] | – |
| COc1ccc(F)cc1C(=O)C1CCCN(Cc2cccn2-c2ccccn2)C1 (stereo unspecified) | 31.6 µM [falling, single point] | – |
| COc1ccc(Nc2nc(N)c(C(=O)c3ccc(OC)cc3)s2)cc1 | 3.98 µM [falling, partial curve, poor fit] | – |
| CC1Cc2ccccc2N1C(=O)C1CCN(S(=O)(=O)Cc2ccccc2)CC1 (stereo unspecified) | 12.6 µM [rising, partial curve, poor fit] | – |
| Nn1cnc2cc3ccccc3cc2c1=O | 4.47 µM [falling, partial curve] | – |
| CCc1ccc(/C=C2/Sc3ccccc3N(CC(=O)NCCCOC)C2=O)cc1 | 2.82 µM [falling, full curve, poor fit] | – |
| CCOC(=O)C1C(=O)NCC2CCCC21 (stereo unspecified) | 0.517 µM [falling, full curve, poor fit] | – |
| C=CCSC1=N/C(=C/c2ccsc2)C(=O)N1c1ccccc1 | 0.731 µM [rising, partial curve, poor fit] | – |
| Cc1onc(-c2ccccc2)c1C(=O)NC(=S)NNC(=O)c1ccc(O)cc1 | 7.31 µM [falling, partial curve] | – |
| CCc1nnc(NC(=O)CSc2ccc(-c3nc4ccc(C)cc4[nH]3)cn2)s1 | 1.3 µM [falling, full curve, poor fit] | – |
| C=CCC[C@H](Cc1ccc(F)cc1)C(=O)OC[C@@H](Cc1c[nH]c2ccccc12)NC(=O)[C@@H](CC=C)CC(=O)NCCO | 23.1 µM [falling, single point] | – |
| COc1cc(C#Cc2c(-c3cncn3C)n(C)c3ccc(-c4cnc(OC)nc4)cc23)cc(OC)c1 | 5.17 µM [falling, full curve] | 7.31 µM [rising, partial curve, poor fit] |
| COc1ccc(C2NC3=C(CCCC3)C(C#N)(C#N)C2(C#N)C#N)cc1 (stereo unspecified) | 11.2 µM [falling, partial curve] | – |
| CCCCNCc1cc2ccccc2o1 | 12.6 µM [rising, single point] | – |
| COc1cc2c(cc1OC)CN(C(=O)c1ccc(-c3ccccc3)cc1)CC2 | 35.5 µM [falling, single point] | – |
| CCc1ccc(CNCc2cccnc2)cc1 | 29.1 µM [rising, single point] | – |
| COC(=O)c1ccc(/C=N/Nc2nc(-c3ccccc3)cs2)cc1 | 14.6 µM [falling, single point] | – |
| COc1ccc(NC(=S)Nc2cc(C(F)(F)F)ccc2F)cc1 | 35.5 µM [rising, partial curve, poor fit] | – |
| O=C(COc1nsnc1N1CCOCC1)Nc1ccccc1Cl | 11.2 µM [falling, partial curve] | – |
| O=C(Nc1ccccc1OC(F)F)c1ccc(Br)o1 | 11.6 µM [rising, partial curve, poor fit] | – |
| COc1ccc2nc(NC(=O)C3CCCN(S(=O)(=O)c4cccs4)C3)sc2c1 (stereo unspecified) | 18.4 µM [falling, single point] | – |
| CC1=CC(C)(C)N=C(Nc2nc(C)c3cc(C)cc(C)c3n2)N1 | 12.6 µM [falling, partial curve, poor fit] | – |

An excerpt of the results above, as a working copy:

| Compound | AC50 [1] | AC50 [2] |
| --- | --- | --- |
| COc1ccc(C2NC3=C(CCCC3)C(C#N)(C#N)C2(C#N)C#N)cc1 (stereo unspecified) | 11.2 µM [falling, partial curve] | – |
| CCCCNCc1cc2ccccc2o1 | 12.6 µM [rising, single point] | – |
| COc1cc2c(cc1OC)CN(C(=O)c1ccc(-c3ccccc3)cc1)CC2 | 35.5 µM [falling, single point] | – |
| CCc1ccc(CNCc2cccnc2)cc1 | 29.1 µM [rising, single point] | – |

Next structures:

| Compound | AC50 [1] | AC50 [2] |
| --- | --- | --- |
| CCOC(=O)Cc1nc2ccccc2o1 | 14.1 µM [falling, single point] | – |
| O=C(Nc1ccccn1)c1ccc(Br)s1 | 11.2 µM [falling, single point] | – |
| O=c1[nH]c(C2CCN(S(=O)(=O)c3ccc(S(=O)(=O)NC4CC4)cc3)CC2)nc2c1nnn2Cc1ccc(F)cc1 | 35.5 µM [falling, single point] | – |
| Nc1nc(-c2ccco2)nc(N2CCCCC2)n1 | 1.58 µM [falling, full curve] | – |
| COc1ccc(/C=C/C(=O)N2CCN(c3ccccn3)CC2)c(OC)c1OC | 11.2 µM [falling, single point] | – |
| CCOc1ccc(-c2cccc(NC(=O)COc3ccccc3)c2)nn1 | 35.5 µM [falling, single point] | – |
| Cc1cccc(-n2ncc3c(N4CCOCC4)ncnc32)c1 | 23.1 µM [falling, partial curve] | – |
| CN(C)/C=C/C(=O)c1ccc(Oc2ncccn2)cc1 | 7.94 µM [rising, partial curve] | – |
| COc1cccc(CN(Cc2cccnc2)S(=O)(=O)c2ccc(-n3cnnn3)c(C)c2)c1OC | 17.8 µM [falling, partial curve, poor fit] | – |
| COCCn1c(SC(C(=O)Nc2cc(C)ccc2OC)c2ccccc2)nnc1-c1ccc(Cl)cc1 (stereo unspecified) | 2.91 µM [rising, single point] | – |
| Cc1ccc(SCc2c(C#N)c3ccccc3n2C)cc1 | 23.1 µM [falling, partial curve, poor fit] | – |
| O=C1[C@@H]2C(Cc3ccc(O)cc3)NC3(C(=O)Nc4ccc(F)cc43)[C@@H]2C(=O)N1c1ccccc1 (stereo partly specified) | 11.2 µM [falling, partial curve, poor fit] | – |
| C=CCNCc1ccccc1[N+](=O)[O-] | 6.51 µM [rising, single point] | – |
| CCCN(C(=O)Cc1csc(-c2ccccc2)n1)C1CCS(=O)(=O)C1 (stereo unspecified) | 25.9 µM [rising, single point] | – |
| O=C(NNC(=O)c1cc(Br)ccc1O)c1csc(N2CCOCC2)n1 | 16.4 µM [falling, partial curve] | – |
| Clc1cccc(-c2ccc(/C=N/n3cnnc3)o2)c1 | 23.1 µM [falling, single point] | – |
| O=C1CC(SCc2nc3ccccc3[nH]2)C(=O)N1c1ccc(F)cc1 (stereo unspecified) | 2.59 µM [falling, partial curve, poor fit] | – |
| COc1ccc(N2CCN(C(CNC(=O)c3cccs3)c3ccco3)CC2)cc1 (stereo unspecified) | 2.59 µM [rising, full curve, poor fit] | – |
| C=CC[C@@H](CC(=O)N(CCO)Cc1ccccc1)C(=O)N[C@@H](COC(=O)[C@@H](CC=C)Cc1ccc(F)cc1)Cc1ccccc1 | 10.3 µM [falling, partial curve] | – |
| CCOc1cc(Cn2c(-c3ccc(O)c(OCC)c3)nc3ccccc32)ccc1O | 20 µM [falling, partial curve, poor fit] | – |
